These are yes or no findings as the source states them, for the method shown. In cells and extracts the contact can be indirect. Binding can be weak; no strength is given. For part of these data: Tags and fused reporters may be left off the sequences shown.
What was measured:
[1] = target: T1, myc-BRMS1 (UniProt Q9HCU9); experiment: co-IP; HEK293 cells transiently transfected with FLAG-tagged ARID4B (AKR or DBA) and myc-BRMS1; anti-myc immunoprecipitation, overnight at 4°C; FLAG-ARID4B by western blot
T1 sequence: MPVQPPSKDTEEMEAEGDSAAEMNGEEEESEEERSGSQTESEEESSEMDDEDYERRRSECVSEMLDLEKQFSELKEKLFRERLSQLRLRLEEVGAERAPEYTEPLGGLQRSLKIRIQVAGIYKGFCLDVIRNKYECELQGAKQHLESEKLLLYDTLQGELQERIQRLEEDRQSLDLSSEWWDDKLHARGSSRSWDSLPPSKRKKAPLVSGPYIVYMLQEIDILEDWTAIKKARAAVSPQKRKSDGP

The chains behind the UniProt entries cited, without tags or fusion partners. Where a name states a change or a piece, a line headed by the entry shows the natural chain unless it says otherwise.
UniProt A2CG63: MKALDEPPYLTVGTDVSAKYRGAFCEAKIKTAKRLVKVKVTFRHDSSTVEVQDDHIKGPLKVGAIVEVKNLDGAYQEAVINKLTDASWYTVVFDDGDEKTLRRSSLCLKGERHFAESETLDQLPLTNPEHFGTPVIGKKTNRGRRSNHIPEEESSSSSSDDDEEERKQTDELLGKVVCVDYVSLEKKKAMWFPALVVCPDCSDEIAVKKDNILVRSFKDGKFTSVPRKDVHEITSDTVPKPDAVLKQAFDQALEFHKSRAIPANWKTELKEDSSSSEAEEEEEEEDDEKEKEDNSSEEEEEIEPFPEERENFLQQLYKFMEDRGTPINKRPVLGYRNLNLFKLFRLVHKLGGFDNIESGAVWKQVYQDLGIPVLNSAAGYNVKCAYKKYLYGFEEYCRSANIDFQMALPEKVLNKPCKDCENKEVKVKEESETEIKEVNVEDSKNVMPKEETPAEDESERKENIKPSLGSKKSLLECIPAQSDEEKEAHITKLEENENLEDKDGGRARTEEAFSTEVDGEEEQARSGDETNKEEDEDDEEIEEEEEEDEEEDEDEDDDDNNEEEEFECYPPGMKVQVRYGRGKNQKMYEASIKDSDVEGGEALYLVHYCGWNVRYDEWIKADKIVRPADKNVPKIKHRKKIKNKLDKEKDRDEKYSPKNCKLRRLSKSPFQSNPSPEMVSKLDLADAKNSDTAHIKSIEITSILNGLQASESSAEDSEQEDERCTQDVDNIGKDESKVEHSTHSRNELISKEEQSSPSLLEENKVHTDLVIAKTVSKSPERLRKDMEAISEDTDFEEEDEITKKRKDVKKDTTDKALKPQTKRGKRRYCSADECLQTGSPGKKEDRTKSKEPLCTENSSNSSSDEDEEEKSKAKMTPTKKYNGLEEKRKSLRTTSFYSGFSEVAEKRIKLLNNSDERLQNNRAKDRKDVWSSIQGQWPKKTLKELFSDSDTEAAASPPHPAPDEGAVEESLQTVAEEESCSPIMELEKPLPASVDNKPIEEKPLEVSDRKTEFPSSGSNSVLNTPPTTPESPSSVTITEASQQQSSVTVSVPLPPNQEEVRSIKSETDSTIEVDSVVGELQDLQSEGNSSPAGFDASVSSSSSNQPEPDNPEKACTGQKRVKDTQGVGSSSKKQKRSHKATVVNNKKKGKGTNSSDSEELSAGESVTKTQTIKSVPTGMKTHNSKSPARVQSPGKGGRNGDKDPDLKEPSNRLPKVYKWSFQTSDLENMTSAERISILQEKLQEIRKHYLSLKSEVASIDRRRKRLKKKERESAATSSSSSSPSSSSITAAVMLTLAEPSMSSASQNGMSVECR

[2] = target: FLAG-tagged ARID4B, AKR allele (mouse) (UniProt A2CG63); experiment: co-IP; HEK293 cells transiently transfected with FLAG-tagged ARID4B (AKR or DBA) and HA-BRMS1; anti-FLAG immunoprecipitation, overnight at 4°C; HA-BRMS1 by western blot
[3] = target: V5-tagged ARID4B, AKR allele (mouse) (UniProt A2CG63); experiment: co-IP; HEK293 cells transiently transfected with V5-tagged ARID4B (AKR or DBA allele); anti-V5 immunoprecipitation from lysate in mild IP lysis buffer (25 mM Tris-HCl pH 7.4, 150 mM NaCl, 1 mM EDTA, 1% NP-40, 5% glycerol), overnight at 4°C; endogenous mSIN3A and mSDS3 by western blot, densitometry of triplicate

FLAG-tagged ARID4B, AKR allele (from UniProt A2CG63-1)
binding [1]: binds

B1: HA-BRMS1 (protein, UniProt Q9HCU9 1-246)
chain: T1 sequence
binding [2]: binds

B2: mSDS3 (endogenous) (protein, UniProt Q9H7L9 1-328)
chain: MSAAGLLAPAPAQAGAPPAPEYYPEEDEELESAEDDERSCRGRESDEDTEDASETDLAKHDEEDYVEMKEQMYQDKLASLKRQLQQLQEGTLQEYQKRMKKLDQQYKERIRNAELFLQLETEQVERNYIKEKKAAVKEFEDKKVELKENLIAELEEKKKMIENEKLTMELTGDSMEVKPIMTRKLRRRPNDPVPIPDKRRKPAPAQLNYLLTDEQIMEDLRTLNKLKSPKRPASPSSPEHLPATPAESPAQRFEARIEDGKLYYDKRWYHKSQAIYLESKDNQKLSCVISSVGANEIWVRKTSDSTKMRIYLGQLQRGLFVIRRRSAA
binding [3]: binds

From paper PMC3364935
